Source: the supplement of paper PMC10849652
This is one part of the list.

By UniProt entry, the sequences of proteins in these tests, tags left out. Where a name states a change or a piece, a line headed by the entry shows the natural chain unless it says otherwise.
UniProt Q9P265: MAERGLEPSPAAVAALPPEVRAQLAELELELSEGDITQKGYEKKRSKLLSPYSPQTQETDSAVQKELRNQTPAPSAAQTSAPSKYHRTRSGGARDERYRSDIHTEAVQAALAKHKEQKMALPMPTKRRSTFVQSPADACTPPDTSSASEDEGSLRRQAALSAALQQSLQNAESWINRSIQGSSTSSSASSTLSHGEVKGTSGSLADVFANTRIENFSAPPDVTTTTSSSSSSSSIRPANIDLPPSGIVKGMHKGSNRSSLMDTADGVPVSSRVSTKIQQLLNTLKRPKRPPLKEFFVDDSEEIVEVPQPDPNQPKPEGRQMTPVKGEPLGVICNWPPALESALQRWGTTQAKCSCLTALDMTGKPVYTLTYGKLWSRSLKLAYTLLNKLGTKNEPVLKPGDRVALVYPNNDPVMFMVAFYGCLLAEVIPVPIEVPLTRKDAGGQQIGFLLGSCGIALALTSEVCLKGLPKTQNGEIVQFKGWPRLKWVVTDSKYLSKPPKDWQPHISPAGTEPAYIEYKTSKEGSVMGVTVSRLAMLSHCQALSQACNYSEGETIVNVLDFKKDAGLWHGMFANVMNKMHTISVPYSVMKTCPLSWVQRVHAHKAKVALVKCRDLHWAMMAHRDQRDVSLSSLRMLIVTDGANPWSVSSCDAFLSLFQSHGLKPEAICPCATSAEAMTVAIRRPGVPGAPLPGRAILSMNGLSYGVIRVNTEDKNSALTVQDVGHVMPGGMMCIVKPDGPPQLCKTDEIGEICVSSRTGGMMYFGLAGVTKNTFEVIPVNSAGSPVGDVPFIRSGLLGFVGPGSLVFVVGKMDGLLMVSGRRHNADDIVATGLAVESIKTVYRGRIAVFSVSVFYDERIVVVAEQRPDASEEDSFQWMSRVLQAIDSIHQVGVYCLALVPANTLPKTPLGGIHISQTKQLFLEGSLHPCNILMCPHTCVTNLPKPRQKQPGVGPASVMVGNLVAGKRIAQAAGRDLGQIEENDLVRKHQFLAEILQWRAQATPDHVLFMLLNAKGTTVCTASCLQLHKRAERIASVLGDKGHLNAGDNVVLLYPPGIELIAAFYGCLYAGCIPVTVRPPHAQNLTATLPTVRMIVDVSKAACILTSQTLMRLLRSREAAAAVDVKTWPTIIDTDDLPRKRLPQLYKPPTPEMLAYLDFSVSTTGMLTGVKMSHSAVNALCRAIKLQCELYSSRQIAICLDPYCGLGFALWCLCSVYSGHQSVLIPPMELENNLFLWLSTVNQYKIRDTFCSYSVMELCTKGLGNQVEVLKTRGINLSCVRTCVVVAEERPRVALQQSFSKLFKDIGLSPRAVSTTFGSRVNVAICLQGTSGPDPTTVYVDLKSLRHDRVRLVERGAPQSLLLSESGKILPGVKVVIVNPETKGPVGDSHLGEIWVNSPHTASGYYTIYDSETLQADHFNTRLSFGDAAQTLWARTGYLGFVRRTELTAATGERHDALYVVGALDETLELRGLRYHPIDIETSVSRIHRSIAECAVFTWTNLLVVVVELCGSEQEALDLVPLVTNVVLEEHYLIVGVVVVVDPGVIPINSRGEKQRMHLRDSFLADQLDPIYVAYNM
UniProt Q13268: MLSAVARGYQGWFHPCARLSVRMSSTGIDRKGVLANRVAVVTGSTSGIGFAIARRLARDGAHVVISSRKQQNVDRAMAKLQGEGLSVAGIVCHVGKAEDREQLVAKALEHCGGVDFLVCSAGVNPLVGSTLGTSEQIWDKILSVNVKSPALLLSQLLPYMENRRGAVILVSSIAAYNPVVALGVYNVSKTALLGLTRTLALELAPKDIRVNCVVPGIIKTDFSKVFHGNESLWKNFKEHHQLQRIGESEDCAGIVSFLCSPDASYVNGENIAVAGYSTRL
UniProt O00571: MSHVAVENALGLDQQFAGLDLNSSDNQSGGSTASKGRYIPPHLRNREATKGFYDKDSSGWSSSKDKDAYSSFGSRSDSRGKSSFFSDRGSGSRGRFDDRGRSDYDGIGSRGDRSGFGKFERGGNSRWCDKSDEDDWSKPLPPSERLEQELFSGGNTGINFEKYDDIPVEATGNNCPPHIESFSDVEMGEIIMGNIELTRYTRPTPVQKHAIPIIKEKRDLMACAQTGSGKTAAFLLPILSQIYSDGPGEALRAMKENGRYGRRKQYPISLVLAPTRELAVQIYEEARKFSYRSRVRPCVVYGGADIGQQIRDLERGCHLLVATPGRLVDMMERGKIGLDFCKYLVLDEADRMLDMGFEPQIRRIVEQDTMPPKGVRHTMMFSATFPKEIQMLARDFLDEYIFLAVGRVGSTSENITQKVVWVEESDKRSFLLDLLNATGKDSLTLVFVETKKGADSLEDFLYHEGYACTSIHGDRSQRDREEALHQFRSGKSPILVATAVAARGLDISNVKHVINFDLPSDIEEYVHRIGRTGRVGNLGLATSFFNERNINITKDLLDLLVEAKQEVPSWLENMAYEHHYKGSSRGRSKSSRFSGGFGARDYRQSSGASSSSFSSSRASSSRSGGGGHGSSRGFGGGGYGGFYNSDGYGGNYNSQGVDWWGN
UniProt Q9BTC0, whole entry, looked up: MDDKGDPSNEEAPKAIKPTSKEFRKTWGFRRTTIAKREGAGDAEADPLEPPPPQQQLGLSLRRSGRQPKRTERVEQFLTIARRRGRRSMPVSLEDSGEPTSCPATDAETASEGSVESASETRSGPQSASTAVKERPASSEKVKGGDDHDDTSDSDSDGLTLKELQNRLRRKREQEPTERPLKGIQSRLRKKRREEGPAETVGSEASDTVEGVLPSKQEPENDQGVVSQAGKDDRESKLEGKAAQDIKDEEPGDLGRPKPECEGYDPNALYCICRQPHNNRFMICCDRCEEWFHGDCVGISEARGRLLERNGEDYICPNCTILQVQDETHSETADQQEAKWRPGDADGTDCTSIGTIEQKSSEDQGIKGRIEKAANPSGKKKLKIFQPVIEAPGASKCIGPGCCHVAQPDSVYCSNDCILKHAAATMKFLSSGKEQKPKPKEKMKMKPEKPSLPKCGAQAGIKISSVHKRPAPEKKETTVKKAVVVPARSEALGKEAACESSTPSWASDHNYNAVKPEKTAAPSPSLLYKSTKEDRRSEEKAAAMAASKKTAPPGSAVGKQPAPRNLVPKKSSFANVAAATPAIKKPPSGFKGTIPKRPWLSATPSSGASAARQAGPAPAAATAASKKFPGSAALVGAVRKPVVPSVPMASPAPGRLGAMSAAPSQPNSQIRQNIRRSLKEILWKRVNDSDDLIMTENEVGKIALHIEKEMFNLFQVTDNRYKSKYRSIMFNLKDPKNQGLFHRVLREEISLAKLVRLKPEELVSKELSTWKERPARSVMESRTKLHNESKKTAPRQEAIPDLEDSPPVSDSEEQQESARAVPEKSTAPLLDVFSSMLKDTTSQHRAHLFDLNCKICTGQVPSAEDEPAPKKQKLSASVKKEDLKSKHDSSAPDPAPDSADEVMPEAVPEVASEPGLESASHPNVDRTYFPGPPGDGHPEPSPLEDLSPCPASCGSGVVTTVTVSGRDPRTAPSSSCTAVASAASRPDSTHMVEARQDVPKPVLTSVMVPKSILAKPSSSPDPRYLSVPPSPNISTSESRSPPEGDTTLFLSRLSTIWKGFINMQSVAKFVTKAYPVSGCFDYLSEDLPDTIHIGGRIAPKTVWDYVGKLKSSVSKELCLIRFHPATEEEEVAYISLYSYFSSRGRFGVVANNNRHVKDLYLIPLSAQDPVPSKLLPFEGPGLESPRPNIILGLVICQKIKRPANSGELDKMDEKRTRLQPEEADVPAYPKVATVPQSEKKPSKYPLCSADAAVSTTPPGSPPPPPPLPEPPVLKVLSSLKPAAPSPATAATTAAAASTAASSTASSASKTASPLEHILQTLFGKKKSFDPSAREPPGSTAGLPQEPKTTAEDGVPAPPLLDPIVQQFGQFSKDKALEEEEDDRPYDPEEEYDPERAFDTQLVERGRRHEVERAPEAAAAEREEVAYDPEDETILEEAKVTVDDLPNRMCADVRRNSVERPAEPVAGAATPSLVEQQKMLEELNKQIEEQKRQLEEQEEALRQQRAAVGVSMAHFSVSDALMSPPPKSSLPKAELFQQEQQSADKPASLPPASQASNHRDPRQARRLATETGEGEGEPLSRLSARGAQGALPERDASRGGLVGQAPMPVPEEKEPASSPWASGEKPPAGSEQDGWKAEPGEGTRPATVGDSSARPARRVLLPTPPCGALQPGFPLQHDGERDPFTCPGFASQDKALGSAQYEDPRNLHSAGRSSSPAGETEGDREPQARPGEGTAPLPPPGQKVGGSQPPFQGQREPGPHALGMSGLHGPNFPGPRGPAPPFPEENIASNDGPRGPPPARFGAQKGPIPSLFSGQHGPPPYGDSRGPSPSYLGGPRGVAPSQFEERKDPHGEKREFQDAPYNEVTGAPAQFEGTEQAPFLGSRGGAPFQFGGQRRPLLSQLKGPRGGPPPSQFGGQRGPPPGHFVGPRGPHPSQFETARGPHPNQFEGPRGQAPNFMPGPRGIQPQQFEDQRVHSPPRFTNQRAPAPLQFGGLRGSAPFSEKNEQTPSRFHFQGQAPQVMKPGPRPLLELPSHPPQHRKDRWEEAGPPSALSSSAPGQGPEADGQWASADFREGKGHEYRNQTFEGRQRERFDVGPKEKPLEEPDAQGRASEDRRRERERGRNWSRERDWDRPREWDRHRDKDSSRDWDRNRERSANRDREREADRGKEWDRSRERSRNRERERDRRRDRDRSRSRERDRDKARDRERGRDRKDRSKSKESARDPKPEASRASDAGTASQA
UniProt P00374: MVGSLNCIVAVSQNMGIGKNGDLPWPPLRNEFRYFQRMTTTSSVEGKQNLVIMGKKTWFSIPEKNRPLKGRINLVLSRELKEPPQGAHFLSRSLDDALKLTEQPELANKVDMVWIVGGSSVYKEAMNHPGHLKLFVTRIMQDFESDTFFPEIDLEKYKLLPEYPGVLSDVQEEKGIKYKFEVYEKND
UniProt Q15398: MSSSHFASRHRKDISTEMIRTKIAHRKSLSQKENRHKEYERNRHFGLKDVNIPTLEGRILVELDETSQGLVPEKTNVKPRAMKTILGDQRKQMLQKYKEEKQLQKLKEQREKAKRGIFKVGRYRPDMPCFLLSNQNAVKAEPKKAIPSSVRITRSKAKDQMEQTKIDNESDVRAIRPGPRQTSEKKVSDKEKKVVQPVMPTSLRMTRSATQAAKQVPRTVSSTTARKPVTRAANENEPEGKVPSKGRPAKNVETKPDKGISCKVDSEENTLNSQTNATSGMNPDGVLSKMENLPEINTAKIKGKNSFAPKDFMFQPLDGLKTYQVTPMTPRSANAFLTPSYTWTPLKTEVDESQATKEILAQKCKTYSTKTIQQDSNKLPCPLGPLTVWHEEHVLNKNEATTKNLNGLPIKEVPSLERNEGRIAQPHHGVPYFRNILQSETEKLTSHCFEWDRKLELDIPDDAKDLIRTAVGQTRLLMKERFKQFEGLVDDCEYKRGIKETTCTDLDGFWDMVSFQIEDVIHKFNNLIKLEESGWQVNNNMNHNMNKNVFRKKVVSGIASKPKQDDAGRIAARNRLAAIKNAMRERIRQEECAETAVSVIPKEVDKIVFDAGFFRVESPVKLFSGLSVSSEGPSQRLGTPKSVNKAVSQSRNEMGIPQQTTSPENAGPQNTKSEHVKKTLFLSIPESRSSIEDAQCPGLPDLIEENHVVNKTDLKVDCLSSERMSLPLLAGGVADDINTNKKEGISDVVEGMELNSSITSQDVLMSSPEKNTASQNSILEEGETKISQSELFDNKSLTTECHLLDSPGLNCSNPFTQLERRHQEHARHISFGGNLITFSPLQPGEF
UniProt P98153: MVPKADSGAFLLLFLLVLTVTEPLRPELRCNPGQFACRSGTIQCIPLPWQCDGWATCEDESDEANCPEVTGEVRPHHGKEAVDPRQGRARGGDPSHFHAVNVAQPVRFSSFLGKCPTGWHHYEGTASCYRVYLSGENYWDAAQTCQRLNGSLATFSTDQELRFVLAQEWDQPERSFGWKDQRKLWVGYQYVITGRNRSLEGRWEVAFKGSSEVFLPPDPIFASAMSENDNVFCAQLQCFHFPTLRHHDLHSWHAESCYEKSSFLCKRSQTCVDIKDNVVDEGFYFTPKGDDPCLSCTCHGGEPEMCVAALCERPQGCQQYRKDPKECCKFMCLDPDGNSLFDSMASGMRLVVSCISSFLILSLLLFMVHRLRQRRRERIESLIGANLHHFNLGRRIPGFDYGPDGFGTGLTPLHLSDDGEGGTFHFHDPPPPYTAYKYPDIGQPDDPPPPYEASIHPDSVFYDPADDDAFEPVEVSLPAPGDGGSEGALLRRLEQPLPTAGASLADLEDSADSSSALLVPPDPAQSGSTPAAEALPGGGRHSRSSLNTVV

How the values were obtained:
Test in all cases: log2 fold change, soluble protein after heating vs DMSO (PISA); higher = thermal stabilisation; K562 cells, 10 uM, 30 min; active = over 0.2 and 3.5 SD of the protein, either way, in both replicates (recomputed)
[1] = compound: CS(=O)(=O)c1ccc(-c2cnc(N)c(C(=O)Nc3ccccc3)n2)cc1
Summary of the method: (§1)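 K562 cells at 2×10^6 cells/mL were given 10 μM compound for 30 min. Aliquots then went through 3 min of heating across 48°C-58°C, were pooled, and were extracted in PBS with 0.5% NP-40 at 4°C, and the supernatant after 21,000xg for 90 min was quantified by TMTpro 16plex LC-MS/MS with channel sums equalised. Thermal stability relative to control samples, from duplicates, is given as log2 fold change.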

crizotinib = compound: C[C@@H](Oc1cc(-c2cnn(C3CCNCC3)c2)cnc1N)c1c(Cl)ccc(F)c1Cl [crizotinib]
Summary of the method: as §1

[2] = compound: C[C@@H]1COCCN1C2=NC(=NC(=C2)C3(CC3)S(=O)(=O)C)C4=C5C=CNC5=CC=C4
Summary of the method: as §1

[3] = compound: C[C@H](C1=CC=C(C=C1)C(=O)NC2=C3C=CNC3=NC=C2)N
Summary of the method: as §1

duvelisib = compound: C[C@H](Nc1ncnc2nc[nH]c12)c1cc2cccc(Cl)c2c(=O)n1-c1ccccc1 [duvelisib]
Summary of the method: as §1

gandotinib = compound: Cc1cc(Nc2cc(CN3CCOCC3)c3nc(C)c(Cc4ccc(Cl)cc4F)n3n2)n[nH]1 [gandotinib]
Summary of the method: as §1

tozasertib = compound: Cc1cc(Nc2cc(N3CCN(C)CC3)nc(Sc3ccc(NC(=O)C4CC4)cc3)n2)n[nH]1 [tozasertib]
Summary of the method: as §1

[4] = compound: Cc1cc(SCc2sc(-c3ccc(C(F)(F)F)cc3)nc2C)ccc1OCC(=O)O
Summary of the method: as §1

doramapimod = compound: Cc1ccc(-n2nc(C(C)(C)C)cc2NC(=O)Nc2ccc(OCCN3CCOCC3)c3ccccc23)cc1 [doramapimod]
Summary of the method: as §1

ispinesib = compound: Cc1ccc(C(=O)N(CCCN)[C@@H](c2nc3cc(Cl)ccc3c(=O)n2Cc2ccccc2)C(C)C)cc1 [ispinesib]
Summary of the method: as §1

bafetinib = compound: Cc1ccc(NC(=O)c2ccc(CN3CC[C@H](N(C)C)C3)c(C(F)(F)F)c2)cc1Nc1nccc(-c2cncnc2)n1 [bafetinib]
Summary of the method: as §1

[5] = compound: Cc1cccc(CC(=O)N2CCc3c2ccc(-c2cn(C)c4ncnc(N)c24)c3F)n1
Summary of the method: as §1

nilotinib = compound: Cc1cn(-c2cc(NC(=O)c3ccc(C)c(Nc4nccc(-c5cccnc5)n4)c3)cc(C(F)(F)F)c2)cn1 [nilotinib]
Summary of the method: as §1

[6] = compound: Cc1nc(Nc2n[nH]c3c2CN(C(=O)N[C@H](CN(C)C)c2ccccc2)C3(C)C)c2sccc2n1
Summary of the method: as §1

dasatinib = compound: Cc1nc(Nc2ncc(C(=O)Nc3c(C)cccc3Cl)s2)cc(N2CCN(CCO)CC2)n1 [dasatinib]
Summary of the method: as §1

[7] = compound: Cc1ncc(-c2ccnc(Nc3ccc(S(C)(=O)=O)cc3)n2)n1C(C)C
Summary of the method: as §1

[8] = compound: Cn1cc(-c2ccc3c(c2)CCN3C(=O)Cc2cccc(C(F)(F)F)c2)c2c(N)ncnc21
Summary of the method: as §1

[9] = compound: Cn1cc(-c2ccc3nnc(C(F)(F)c4ccc5ncccc5c4)n3n2)cn1
Summary of the method: as §1

tipifarnib = compound: Cn1cncc1[C@@](N)(c1ccc(Cl)cc1)c1ccc2c(c1)c(-c1cccc(Cl)c1)cc(=O)n2C [tipifarnib]
Summary of the method: as §1

mubritinib = compound: FC(F)(F)c1ccc(/C=C/c2nc(COc3ccc(CCCCn4ccnn4)cc3)co2)cc1 [mubritinib]
Summary of the method: as §1

Measured: log2 fold change

DHDDS isoform 2 (UniProt Q86SQ9)
inactive: [1] 0 | crizotinib 0.115 | [2] 0.018 | [3] 0.027 | duvelisib 0.061 | gandotinib 0.046 | tozasertib 0.018 | [4] -0.05 | doramapimod 0.046 | ispinesib 0.112 | bafetinib -0.013 | [5] -0.04 | nilotinib 0.029 | [6] 0.045 | dasatinib -0.022 | [7] -0.022 | [8] -0.006 | [9] 0.021 | tipifarnib -0.023 | mubritinib 0.072

DECR1 (UniProt Q16698)
inactive: [1] 0.002 | crizotinib 0.032 | [2] 0.027 | [3] -0.068 | duvelisib 0.045 | gandotinib -0.03 | tozasertib 0.014 | [4] -0.006 | doramapimod -0.012 | ispinesib 0.042 | bafetinib 0.009 | [5] 0.106 | nilotinib 0.019 | [6] -0.01 | dasatinib -0.018 | [7] -0.007 | [8] 0.035 | [9] -0.008 | tipifarnib -0.061 | mubritinib 0.022

DGAT1 (UniProt O75907)
inactive: [1] -0.035 | crizotinib 0.033 | [2] -0.038 | [3] -0.073 | duvelisib -0.007 | gandotinib 0.015 | tozasertib 0.08 | [4] -0.043 | doramapimod 0.006 | ispinesib 0.046 | bafetinib -0.004 | [5] -0.004 | nilotinib -0.038 | [6] 0.041 | dasatinib -0.042 | [7] -0.066 | [8] 0.051 | [9] -0.065 | tipifarnib 0 | mubritinib 0.003

DIP2B (UniProt Q9P265)
inactive: [1] -0.008 | crizotinib 0.036 | [2] -0.013 | [3] -0.069 | duvelisib 0.032 | gandotinib -0.022 | tozasertib 0.015 | [4] 0.012 | doramapimod -0.02 | ispinesib 0.061 | bafetinib -0.03 | [5] 0.031 | nilotinib -0.001 | [6] -0.008 | dasatinib -0.035 | [7] -0.015 | [8] 0.053 | [9] 0.015 | tipifarnib -0.006 | mubritinib 0.043

Two neighbouring entries already listed, for reference:
DHDDS isoform 2 (UniProt Q86SQ9)
inactive: [1] 0 | crizotinib 0.115 | [2] 0.018 | [3] 0.027 | duvelisib 0.061 | gandotinib 0.046 | tozasertib 0.018 | [4] -0.05 | doramapimod 0.046 | ispinesib 0.112 | bafetinib -0.013 | [5] -0.04 | nilotinib 0.029 | [6] 0.045 | dasatinib -0.022 | [7] -0.022 | [8] -0.006 | [9] 0.021 | tipifarnib -0.023 | mubritinib 0.072

DECR1 (UniProt Q16698)
inactive: [1] 0.002 | crizotinib 0.032 | [2] 0.027 | [3] -0.068 | duvelisib 0.045 | gandotinib -0.03 | tozasertib 0.014 | [4] -0.006 | doramapimod -0.012 | ispinesib 0.042 | bafetinib 0.009 | [5] 0.106 | nilotinib 0.019 | [6] -0.01 | dasatinib -0.018 | [7] -0.007 | [8] 0.035 | [9] -0.008 | tipifarnib -0.061 | mubritinib 0.022

More entries follow:

DNAJA1 (UniProt P31689)
inactive: [1] 0.01 | crizotinib 0.005 | [2] -0.022 | [3] -0.028 | duvelisib 0.012 | gandotinib -0.016 | tozasertib -0.007 | [4] -0.026 | doramapimod -0.022 | ispinesib 0.033 | bafetinib -0.072 | [5] 0.002 | nilotinib -0.082 | [6] -0.046 | dasatinib 0.017 | [7] -0.016 | [8] -0.001 | [9] -0.032 | tipifarnib 0.023 | mubritinib 0.03

DHRS2 (UniProt Q13268)
inactive: [1] 0.068 | crizotinib 0.038 | [2] 0.037 | [3] 0.006 | duvelisib 0.047 | gandotinib -0.059 | tozasertib -0.016 | [4] 0.03 | doramapimod 0.029 | ispinesib 0.101 | bafetinib -0.138 | [5] 0.004 | nilotinib -0.03 | [6] 0 | dasatinib -0.069 | [7] -0.057 | [8] 0.002 | [9] -0.007 | tipifarnib -0.001 | mubritinib -0.052

DDX3X (UniProt O00571)
inactive: [1] 0.17 | crizotinib -0.167 | [2] -0.709 | [3] 0.568 | duvelisib -0.212 | gandotinib 0.281 | tozasertib -0.171 | [4] 0.111 | doramapimod 0.41 | ispinesib -0.496 | bafetinib 0.259 | [5] -0.006 | nilotinib -0.152 | [6] -0.264 | dasatinib 0.024 | [7] -0.053 | [8] -0.306 | [9] -0.421 | tipifarnib 0.115 | mubritinib -0.297

DDHD2 (UniProt O94830)
inactive: [1] -0.009 | crizotinib -0.189 | [2] 0.027 | [3] -0.009 | duvelisib 0.01 | gandotinib -0.039 | tozasertib -0.087 | [4] -0.009 | doramapimod -0.011 | ispinesib -0.13 | bafetinib -0.051 | [5] -0.02 | nilotinib 0.041 | [6] -0.017 | dasatinib -0.085 | [7] -0.021 | [8] 0.116 | [9] -0.048 | tipifarnib -0.078 | mubritinib 0.072

DLG3 (UniProt Q92796)
inactive: [1] 0.008 | crizotinib 0.013 | [2] 0.121 | [3] 0.12 | duvelisib -0.002 | gandotinib 0.033 | tozasertib -0.062 | [4] 0.012 | doramapimod -0.034 | ispinesib 0.082 | bafetinib -0.018 | [5] 0.087 | nilotinib 0.005 | [6] 0.019 | dasatinib -0.019 | [7] -0.041 | [8] 0.136 | [9] -0.089 | tipifarnib 0.089 | mubritinib 0.06

DIDO1 (UniProt Q9BTC0)
inactive: [1] 0.052 | crizotinib -0.159 | [2] 0.046 | [3] 0.093 | duvelisib -0.089 | gandotinib -0.119 | tozasertib 0.129 | [4] 0.088 | doramapimod 0.006 | ispinesib -0.301 | [5] 0.002 | dasatinib -0.135 | [8] 0.017 | [9] -0.028 | tipifarnib 0.257 | mubritinib 0.074

DIMT1 (UniProt Q9UNQ2)
inactive: [1] -0.073 | crizotinib -0.006 | [2] -0.352 | [3] 0.312 | duvelisib -0.143 | gandotinib 0.183 | tozasertib 0.021 | [4] -0.01 | doramapimod 0.181 | ispinesib -0.146 | bafetinib 0.193 | [5] -0.001 | nilotinib -0.031 | [6] 0.184 | dasatinib 0.067 | [7] 0.016 | [8] -0.192 | [9] -0.144 | tipifarnib 0.076 | mubritinib -0.125

DHFR (UniProt P00374)
active: crizotinib 0.956 | duvelisib 0.604
inactive: [1] -0.009 | [2] -0.015 | [3] 0.239 | gandotinib -0.194 | [4] 0.048 | doramapimod 0.179 | ispinesib -0.207 | bafetinib 0.191 | [5] 0.026 | nilotinib 0.185 | [6] -0.022 | dasatinib -0.187 | [7] 0.076 | [8] 0 | [9] 0.182 | tipifarnib 0.177 | mubritinib -0.225

DNAH8 (UniProt Q96JB1)
inactive: [1] 0.046 | crizotinib 0.033 | [2] 0.055 | [3] 0.042 | duvelisib 0.104 | tozasertib -0.187 | [4] 0.09 | doramapimod 0.214 | ispinesib 0.075 | bafetinib -0.021 | nilotinib -0.084 | [6] 0.054 | dasatinib 0.002 | [7] 0.078 | [8] 0.007 | [9] 0.038 | tipifarnib -0.184 | mubritinib -0.066

DDX47 (UniProt Q9H0S4)
inactive: [1] 0.08 | crizotinib 0.038 | [2] -0.395 | [3] 0.475 | duvelisib -0.25 | [4] -0.002 | doramapimod 0.139 | ispinesib 0.063 | bafetinib 0.044 | nilotinib 0.243 | [6] 0.202 | dasatinib 0.207 | [7] 0.184 | [8] -0.119 | [9] -0.153 | mubritinib 0.097

DLGAP5 (UniProt Q15398)
inactive: [1] 0.016 | crizotinib -0.011 | [2] 0 | [3] 0.087 | duvelisib 0.083 | gandotinib 0.037 | tozasertib 0.043 | [4] 0.125 | doramapimod 0.03 | ispinesib -0.092 | bafetinib -0.043 | [5] 0.066 | nilotinib -0.076 | [6] -0.164 | dasatinib -0.169 | [7] -0.038 | [8] 0.034 | [9] -0.003 | tipifarnib -0.038 | mubritinib 0.105

DENND4B (UniProt O75064)
inactive: [1] 0.045 | crizotinib -0.016 | [2] -0.074 | [3] 0.093 | duvelisib -0.031 | gandotinib -0.055 | tozasertib -0.068 | [4] 0.02 | doramapimod 0.088 | ispinesib -0.012 | bafetinib -0.228 | [5] 0.043 | nilotinib 0.028 | [6] -0.021 | dasatinib -0.074 | [7] -0.043 | [8] 0.007 | [9] 0.032 | tipifarnib 0.05 | mubritinib -0.039

DGCR2 (UniProt P98153)
inactive: [1] 0.03 | crizotinib -0.014 | [2] -0.025 | [3] 0.067 | duvelisib 0.062 | gandotinib 0.085 | tozasertib -0.045 | [4] -0.093 | doramapimod 0.049 | ispinesib 0.039 | bafetinib -0.156 | [5] -0.017 | nilotinib -0.021 | [6] -0.013 | dasatinib 0.069 | [7] 0.069 | [8] -0.006 | [9] -0.157 | tipifarnib -0.008 | mubritinib -0.043
